# Source: the supplement of paper PMC10338343
# ± gives the standard deviation. The entries are a selection whose mix differs from that of the whole data set. Many of these values have a large error. Some of the results follow.
# Tests used:
# [1] = test system: MILI (PIWIL2) piRISC loaded with L1MC piRNA (26 nt); assay: pre-steady-state target cleavage rate (min^-1); higher = faster piRNA-guided slicing of the target; details: guide: L1MC piRNA 5'p-UAACUAAAUACUAUGCAAGCUGUAGG
# In short: (§1)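 With or without 500 nM GTSF1 partner protein, 1 nM active affinity-purified piRISC carrying one synthetic guide was mixed with 0.1 nM transcribed, DNA-blocked target RNA library in HEPES–potassium acetate buffer at 33 °C for 0–8 or 0–960 min. Uncleaved targets were sequenced and normalised to depth and to weakly complementary targets, three trials were pooled, and k3 was capped at 0.0001 min^-1. The pre-steady-state cleavage rate came from a burst-and-steady-state fit.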
# [2] = test system: MIWI (PIWIL1) piRISC loaded with L1MC piRNA (30 nt); assay: as above; details: guide: L1MC piRNA 5'p-UAACUAAAUACUAUGCAAGCUGUAGGUCCU
# In short: as §1
# [3] = test system: EfPiwi piRISC loaded with L1MC piRNA (26 nt); assay: pre-steady-state target cleavage rate (min^-1); guide: L1MC piRNA 5'p-UAACUAAAUACUAUGCAAGCUGUAGG; MIWI and MILI are mouse PIWI proteins and EfPiwi is from a freshwater sponge; tags in brackets are library labels; higher = faster piRNA-guided slicing of the target
# In short: as §1
# [4] = auxiliary factor: none (no GTSF1)
# [5] = auxiliary factor: 500 nM Ephydatia muelleri Gtsf1
# [6] = auxiliary factor: none (no Gtsf1)
# [7] = auxiliary factor: 500 nM mouse GTSF1
Sequence,"pre-steady-state target cleavage rate [1, 4]","pre-steady-state target cleavage rate [2, 4]","pre-steady-state target cleavage rate [3, 5]","pre-steady-state target cleavage rate [3, 6]","pre-steady-state target cleavage rate [1, 7]","pre-steady-state target cleavage rate [2, 7]"
UCCUGCUACAGCUUGCAUAGUUAUUAGAAA,0.000264 ± 0.012,0.00147 ± 0.0028,0.00309 ± 0.0025,0.00072 ± 0.0099,–,–
UCCUGGAUGAGCUUGCAUAGUAUUAUCUUA,0.000586 ± 0.011,0.00246 ± 0.0037,0.000951 ± 0.0049,0.000546 ± 0.015,–,–
UCCUGGAACAGCUACCAUAGUAUUUAGAAA,0.000738 ± 0.0079,0.000817 ± 0.0079,0.00138 ± 0.0029,0.000488 ± 0.012,–,–
UCCUGGAUGUCCUUCCAUAGUAAUUAGUUA,0.00043 ± 0.011,0.000673 ± 0.0083,0.00075 ± 0.0061,< 0.0001,–,–
UCCUGGAACAGCUUGCAUUGUAUUUUCAAA,0.000838 ± 0.0058,0.00205 ± 0.004,0.00128 ± 0.0038,0.000273 ± 0.026,–,–
UCCUGGAUGAGCUUGCAUAGUAAUAAGUUA,0.00182 ± 0.004,0.000633 ± 0.0061,0.00134 ± 0.0043,0.000681 ± 0.011,–,–
UCCUGGAUCAGCUUCCAUAGUAUUUAGUUA,0.00133 ± 0.0034,0.00169 ± 0.002,0.00321 ± 0.0017,0.000183 ± 0.028,–,–
UCCUCCUACAGCUUCCAUACUAUUUAGUUA,0.000686 ± 0.0071,0.00145 ± 0.004,0.00222 ± 0.0027,0.000273 ± 0.014,–,–
UCCUGGAUCAGGAAGCAUAGUAUUUAGAAA,0.000747 ± 0.006,0.000469 ± 0.0066,0.00183 ± 0.0061,< 0.0001,–,–
UCCUGGUACAGCUUGCUUAGUAUUUACAAA,0.00122 ± 0.0045,0.0023 ± 0.0028,0.00117 ± 0.0027,0.000263 ± 0.03,–,–
UCCUGGAUGUCGAUGCAUAGUUAUUUAGUUA,0.00216 ± 0.0029,0.000793 ± 0.0084,0.000318 ± 0.0091,0.000335 ± 0.024,–,–
UCCUGGAUGUCCUUGCAUAGAAUUUAGUUA,0.00208 ± 0.0039,0.00253 ± 0.0038,0.000878 ± 0.0046,0.000312 ± 0.011,–,–
UCCUGGAACAGCUUGCAUAGAUUUUAGAAA,0.000778 ± 0.0066,0.000461 ± 0.0063,0.00113 ± 0.0024,0.000161 ± 0.025,–,–
UCCUCCUACAGCUUGCAAUCUAUUUUCAAA,0.000583 ± 0.0078,0.000409 ± 0.014,0.00036 ± 0.011,< 0.0001,–,–
UCCUGCUACAGCUUGCAUAGUAAUUUCAAA,0.00086 ± 0.0072,0.000434 ± 0.012,0.00378 ± 0.0027,0.000695 ± 0.0094,–,–
UCCUGGAUGUCCUUGCAUAGUAUUUUGUAA,0.000748 ± 0.0072,0.000846 ± 0.0068,0.002 ± 0.0048,0.000357 ± 0.018,–,–
UCCUCCUACAGCUUGCAUACAUUUUUCAAA,0.000624 ± 0.0073,0.000633 ± 0.0099,0.00112 ± 0.0067,0.000196 ± 0.024,–,–
UCCUGGAACAGCUUGCAUAGAUAUUUCAAA,0.000637 ± 0.0073,0.000709 ± 0.0086,0.000766 ± 0.0045,0.000278 ± 0.02,–,–
UCCUGGUACACGUUGCAUAGUAUUUACAAA,0.000988 ± 0.0098,0.000584 ± 0.011,0.000402 ± 0.015,0.000417 ± 0.021,–,–
UCCUGGAUCAGCUUGCAUUCUAUUUUCAAA,0.00051 ± 0.0092,0.000721 ± 0.0071,0.000254 ± 0.014,0.000105 ± 0.058,–,–
UCCUGGAUGUCCUUGCAUACUAUUAAGUUA,0.000887 ± 0.0051,0.00091 ± 0.0064,0.00032 ± 0.011,0.000287 ± 0.015,–,–
UCCUGCUACAGCUUGCAUAGUUAAAUCAAA [g10:g25:cont:t1A],0.000844 ± 0.0078,0.000348 ± 0.012,0.00139 ± 0.0073,0.000178 ± 0.061,–,–

# Reprinted at random: two entries already listed
Sequence,"pre-steady-state target cleavage rate [1, 4]","pre-steady-state target cleavage rate [2, 4]","pre-steady-state target cleavage rate [3, 5]","pre-steady-state target cleavage rate [3, 6]","pre-steady-state target cleavage rate [1, 7]","pre-steady-state target cleavage rate [2, 7]"
UCCUGGAUCAGCUUCCAUAGUAUUUAGUUA,0.00133 ± 0.0034,0.00169 ± 0.002,0.00321 ± 0.0017,0.000183 ± 0.028,–,–
UCCUGGAUCAGGAAGCAUAGUAUUUAGAAA,0.000747 ± 0.006,0.000469 ± 0.0066,0.00183 ± 0.0061,< 0.0001,–,–

# More results follow:

Sequence,"pre-steady-state target cleavage rate [1, 4]","pre-steady-state target cleavage rate [2, 4]","pre-steady-state target cleavage rate [3, 5]","pre-steady-state target cleavage rate [3, 6]","pre-steady-state target cleavage rate [1, 7]","pre-steady-state target cleavage rate [2, 7]"
UCCUGGAUGUCGUUGCAUAGUAUAUAGAUA,0.00101 ± 0.0066,0.000592 ± 0.012,0.000376 ± 0.0095,< 0.0001,–,–
UCCUGCUACAGCUUGCAUAGUAUUAAGAUA,0.00127 ± 0.0044,0.0027 ± 0.0031,0.00501 ± 0.0016,0.000638 ± 0.0098,–,–
UCCUGGUACAGCUUGCAUAGAUAAAUCAAA [g11:g24:cont:t1A],0.00056 ± 0.013,0.0003 ± 0.016,0.000426 ± 0.01,0.000609 ± 0.01,–,–
UCCUGGAUGUCCUUGCAUAGUAAUUACUUA,0.000798 ± 0.0083,0.00142 ± 0.0065,0.00155 ± 0.0054,< 0.0001,–,–
UCCUGGUACUGCUUGCAUAGUAUUUUCAAA,0.0013 ± 0.0054,0.00177 ± 0.004,0.00285 ± 0.0022,0.000605 ± 0.014,–,–
UCCUGGUACAGCUACCAUAGUAUUUAGUUA,–,0.0023 ± 0.0028,0.00432 ± 0.0019,0.000949 ± 0.0086,0.305 ± 0.044,–
UCCUGGUACAGCUUGCUAAGUAUUUACAAA,0.00089 ± 0.008,0.00139 ± 0.0056,0.000603 ± 0.0079,0.00043 ± 0.016,–,–
UCCUGGUACAGCUUGCAUUGUAUUUACAAA,0.00152 ± 0.0066,0.00164 ± 0.0048,0.000776 ± 0.0065,0.000327 ± 0.029,–,–
UCCUGCUACAGCUUGCAUAAGUAUUUAGUUA,0.0016 ± 0.0045,0.000826 ± 0.011,0.00273 ± 0.0019,0.000528 ± 0.0084,–,–
UCCUGGAUGAGCAAGCAUAGUAUUUACAAA,0.00016 ± 0.02,0.000318 ± 0.015,0.000668 ± 0.005,0.000679 ± 0.018,–,–
UCCUGGAUGUGCUUGCAUAGAUAUUAGUAA,0.000656 ± 0.01,0.000643 ± 0.012,0.000346 ± 0.0099,0.000659 ± 0.016,–,–
UCCUGGAUGACGAUGCAUAGUAUUUAGAAA,0.00115 ± 0.0073,0.00154 ± 0.0052,0.00171 ± 0.0043,0.000551 ± 0.015,–,–
UCCUCCUACAGCUUGCAUAUGUAUUUAGUUA,0.00141 ± 0.0046,0.000773 ± 0.01,0.00297 ± 0.0032,0.000431 ± 0.011,–,–
UCCUCGUACAGCUUGCAUAGUAUUUUCAAA,0.00107 ± 0.0051,0.00228 ± 0.0026,0.0038 ± 0.0029,0.000357 ± 0.018,–,–
UCCUGCUACAGCUUGCAUACUAUUUUCAAA,0.0012 ± 0.0045,0.00145 ± 0.0048,0.00206 ± 0.0031,0.000252 ± 0.021,–,–
UCCUGCUACAGCUUCGAUAGUAUUUAGAAA,0.000934 ± 0.005,0.000766 ± 0.0075,0.00217 ± 0.0033,0.000158 ± 0.035,–,–
UCCUGGAUGUCCUUGCAUAGAAUUUAGAUA,0.000707 ± 0.0078,0.00143 ± 0.0055,0.00162 ± 0.0047,0.000371 ± 0.016,–,–
UCCUGGAUGUGCUAGCAUAGUAUUAAGUUA,0.00214 ± 0.0037,0.00302 ± 0.0039,0.000944 ± 0.0057,0.000312 ± 0.03,–,–
UCCUGGAUGAGCUUCGUUAGUAUUUACAAA,0.000599 ± 0.0083,0.000681 ± 0.0067,0.000142 ± 0.029,0.000343 ± 0.021,–,–
UCCUGCUACAGCUUGCAAUGUAUUUUCAAA,0.000663 ± 0.0068,0.000731 ± 0.0098,0.00113 ± 0.0074,0.000581 ± 0.009,–,–
UCCUGGAUGUCGAAGCAAUCUAUUUAGUUA,0.000189 ± 0.02,0.000408 ± 0.011,0.00026 ± 0.012,0.000375 ± 0.017,–,–
UCCUGGAUGUCGAUGCAUAGUAUUAUGUUA,0.00157 ± 0.0043,–,0.000877 ± 0.0097,< 0.0001,–,0.000982 ± 0.0083
